These results are taken from article PMC8625570.

Chains of the proteins cited; added tags and fusions are not shown. Lines headed by an entry give the natural chain unless they say otherwise; changes in a name come on top. Residues count along the entry.
UniProt P62745, residues 1-181: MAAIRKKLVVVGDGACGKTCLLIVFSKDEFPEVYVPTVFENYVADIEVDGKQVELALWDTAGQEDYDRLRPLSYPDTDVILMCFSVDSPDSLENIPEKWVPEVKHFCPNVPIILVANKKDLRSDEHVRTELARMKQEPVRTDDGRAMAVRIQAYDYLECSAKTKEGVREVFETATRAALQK
UniProt P08134, residues 1-181: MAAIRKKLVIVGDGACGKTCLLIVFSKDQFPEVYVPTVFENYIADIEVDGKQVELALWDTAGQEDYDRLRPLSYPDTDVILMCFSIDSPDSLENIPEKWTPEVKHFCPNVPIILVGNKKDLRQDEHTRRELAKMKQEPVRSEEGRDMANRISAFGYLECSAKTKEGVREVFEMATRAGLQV
UniProt P17081, residues 2-193: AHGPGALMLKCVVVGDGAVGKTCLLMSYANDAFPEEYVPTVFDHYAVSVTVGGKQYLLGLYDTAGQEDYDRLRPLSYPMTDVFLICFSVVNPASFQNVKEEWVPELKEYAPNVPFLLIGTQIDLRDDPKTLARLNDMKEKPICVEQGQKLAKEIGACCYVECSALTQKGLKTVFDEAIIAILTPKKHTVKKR
UniProt P61586, residues 1-181: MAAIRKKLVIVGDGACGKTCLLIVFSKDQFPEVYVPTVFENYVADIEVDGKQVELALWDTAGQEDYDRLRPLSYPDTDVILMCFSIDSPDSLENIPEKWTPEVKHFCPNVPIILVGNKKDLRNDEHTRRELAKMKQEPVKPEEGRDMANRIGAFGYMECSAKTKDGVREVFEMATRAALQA
UniProt P60953, residues 1-178: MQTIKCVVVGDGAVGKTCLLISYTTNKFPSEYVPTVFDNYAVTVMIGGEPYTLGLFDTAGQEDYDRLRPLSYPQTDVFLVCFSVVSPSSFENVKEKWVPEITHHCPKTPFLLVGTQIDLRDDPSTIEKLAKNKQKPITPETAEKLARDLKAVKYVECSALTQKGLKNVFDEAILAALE
UniProt P84095, residues 1-178: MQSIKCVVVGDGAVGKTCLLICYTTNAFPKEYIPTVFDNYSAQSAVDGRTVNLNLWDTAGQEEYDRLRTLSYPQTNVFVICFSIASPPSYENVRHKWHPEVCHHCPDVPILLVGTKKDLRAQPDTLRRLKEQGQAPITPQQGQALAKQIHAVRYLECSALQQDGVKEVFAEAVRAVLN
UniProt P46940: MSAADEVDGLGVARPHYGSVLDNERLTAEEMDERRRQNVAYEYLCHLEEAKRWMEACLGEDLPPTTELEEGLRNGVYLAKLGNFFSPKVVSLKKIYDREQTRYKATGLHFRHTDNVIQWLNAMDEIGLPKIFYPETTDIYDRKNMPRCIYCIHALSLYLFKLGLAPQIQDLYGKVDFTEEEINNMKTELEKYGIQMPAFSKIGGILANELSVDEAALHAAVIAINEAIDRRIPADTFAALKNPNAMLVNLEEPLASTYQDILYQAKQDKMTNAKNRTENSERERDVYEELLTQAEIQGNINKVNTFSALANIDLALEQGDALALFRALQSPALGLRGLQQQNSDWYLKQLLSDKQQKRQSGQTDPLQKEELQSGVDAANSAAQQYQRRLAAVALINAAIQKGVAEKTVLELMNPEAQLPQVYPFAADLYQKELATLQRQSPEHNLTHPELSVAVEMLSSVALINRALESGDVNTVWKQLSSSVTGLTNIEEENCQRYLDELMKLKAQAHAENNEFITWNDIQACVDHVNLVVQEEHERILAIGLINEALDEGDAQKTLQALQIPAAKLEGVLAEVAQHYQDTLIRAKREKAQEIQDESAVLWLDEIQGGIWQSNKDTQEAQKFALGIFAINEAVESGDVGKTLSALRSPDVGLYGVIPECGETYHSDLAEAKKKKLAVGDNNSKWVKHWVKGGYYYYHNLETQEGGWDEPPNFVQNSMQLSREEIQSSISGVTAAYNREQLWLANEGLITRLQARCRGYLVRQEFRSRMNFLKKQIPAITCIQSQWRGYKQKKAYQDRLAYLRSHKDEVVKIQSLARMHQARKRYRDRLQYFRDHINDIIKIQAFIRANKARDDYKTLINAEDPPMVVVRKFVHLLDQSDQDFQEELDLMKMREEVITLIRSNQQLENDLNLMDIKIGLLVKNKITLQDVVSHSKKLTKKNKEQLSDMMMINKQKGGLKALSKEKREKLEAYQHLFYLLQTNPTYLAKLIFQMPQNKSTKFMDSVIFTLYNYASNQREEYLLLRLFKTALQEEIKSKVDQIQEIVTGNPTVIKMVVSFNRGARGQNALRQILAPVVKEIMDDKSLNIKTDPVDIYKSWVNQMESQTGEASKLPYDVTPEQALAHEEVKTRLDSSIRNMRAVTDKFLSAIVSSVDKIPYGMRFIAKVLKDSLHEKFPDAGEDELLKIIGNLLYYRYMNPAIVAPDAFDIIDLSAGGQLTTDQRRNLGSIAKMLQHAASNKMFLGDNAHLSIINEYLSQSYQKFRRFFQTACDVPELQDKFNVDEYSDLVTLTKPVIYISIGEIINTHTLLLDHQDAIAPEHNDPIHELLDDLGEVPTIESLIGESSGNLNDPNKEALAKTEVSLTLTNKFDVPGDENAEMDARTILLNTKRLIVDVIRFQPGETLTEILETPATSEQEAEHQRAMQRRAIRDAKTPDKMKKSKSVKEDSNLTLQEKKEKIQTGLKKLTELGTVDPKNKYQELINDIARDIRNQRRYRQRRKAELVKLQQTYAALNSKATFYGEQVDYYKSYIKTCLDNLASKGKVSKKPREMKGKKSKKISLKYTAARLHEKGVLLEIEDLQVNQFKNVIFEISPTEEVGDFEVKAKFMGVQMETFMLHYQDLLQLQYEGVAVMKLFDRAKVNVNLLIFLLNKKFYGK
UniProt Q13576, residues 780-1575: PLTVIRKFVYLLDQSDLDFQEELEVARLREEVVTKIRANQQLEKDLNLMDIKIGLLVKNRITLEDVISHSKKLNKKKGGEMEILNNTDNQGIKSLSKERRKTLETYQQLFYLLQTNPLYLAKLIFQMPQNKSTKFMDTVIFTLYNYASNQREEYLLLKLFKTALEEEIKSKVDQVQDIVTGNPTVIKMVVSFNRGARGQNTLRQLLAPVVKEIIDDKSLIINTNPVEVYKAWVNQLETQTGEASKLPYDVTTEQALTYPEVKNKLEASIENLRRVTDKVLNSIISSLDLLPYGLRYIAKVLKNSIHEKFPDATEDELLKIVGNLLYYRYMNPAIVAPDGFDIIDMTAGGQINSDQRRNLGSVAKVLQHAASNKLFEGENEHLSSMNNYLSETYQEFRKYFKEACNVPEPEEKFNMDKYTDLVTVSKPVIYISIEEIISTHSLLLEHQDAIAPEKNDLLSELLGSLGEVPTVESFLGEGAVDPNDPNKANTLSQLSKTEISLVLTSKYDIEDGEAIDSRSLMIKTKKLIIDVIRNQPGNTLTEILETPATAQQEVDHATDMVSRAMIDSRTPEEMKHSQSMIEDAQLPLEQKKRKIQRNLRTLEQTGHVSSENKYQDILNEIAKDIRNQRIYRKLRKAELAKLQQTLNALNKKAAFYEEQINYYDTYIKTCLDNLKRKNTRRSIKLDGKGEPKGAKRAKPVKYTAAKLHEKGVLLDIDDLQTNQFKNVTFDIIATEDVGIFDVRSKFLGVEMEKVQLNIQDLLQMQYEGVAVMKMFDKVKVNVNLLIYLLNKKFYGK

Assay [1] deals with T1, RHOD, mouse (aa 2-193) (mouse) (UniProt P97348).
T1 sequence: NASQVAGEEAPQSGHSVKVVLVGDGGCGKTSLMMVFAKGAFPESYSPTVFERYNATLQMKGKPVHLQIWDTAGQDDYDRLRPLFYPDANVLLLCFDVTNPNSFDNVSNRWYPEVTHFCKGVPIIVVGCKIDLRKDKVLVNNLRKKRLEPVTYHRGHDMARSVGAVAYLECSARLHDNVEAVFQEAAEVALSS
As to the kind of experiment: stopped-flow fluorescence spectrometry; association (kobs): 2 µM IQGAP1^C794 or IQGAP2^C795 mixed with 0.2 µM mGppNHp-bound RHO GTPase; 30 mM Tris-HCl pH 7.5, 10 mM K2HPO4/KH2PO4 pH 7.4, 2 mM MgCl2, 3 mM DTT, 25 °C; both purified.

Assay [2] has as its target RHOB (aa 1-181) (human) (UniProt P62745). The assay is described as above.
For assay [3], the target named is RHOC (aa 1-181) (human) (UniProt P08134). Described as above.
The target of assay [4] is TC10 (aa 2-193) (human) (UniProt P17081). The description is as above.
In assay [5] the target is RHOA (aa 1-181) (human) (UniProt P61586). The description is as above.
The target of assay [6] is T2, RIF (aa 1-195) (human) (UniProt Q9HBH0).
T2 sequence: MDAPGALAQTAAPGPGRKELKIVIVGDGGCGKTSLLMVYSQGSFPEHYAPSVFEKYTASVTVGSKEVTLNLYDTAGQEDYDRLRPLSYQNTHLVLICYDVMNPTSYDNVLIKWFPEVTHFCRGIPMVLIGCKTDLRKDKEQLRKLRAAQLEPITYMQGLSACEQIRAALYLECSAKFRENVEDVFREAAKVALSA
The description is as above.

The target in assay [7] is T3, RND3 (aa 1-244) (human) (UniProt P61587).
T3 sequence: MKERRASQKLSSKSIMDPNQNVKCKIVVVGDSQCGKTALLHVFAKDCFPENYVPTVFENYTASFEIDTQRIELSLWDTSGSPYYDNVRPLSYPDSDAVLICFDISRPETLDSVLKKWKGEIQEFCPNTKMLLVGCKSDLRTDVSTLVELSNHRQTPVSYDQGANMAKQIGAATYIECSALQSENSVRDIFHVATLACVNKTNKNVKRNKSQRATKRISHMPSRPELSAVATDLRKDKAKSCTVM
Description: stopped-flow fluorescence spectrometry; indirect competition: association of IQGAP1^C794 with RAC1 in the presence and absence of excess GTP-bound RND proteins; GppNHp-bound CDC42 as positive control; both purified.

The target in assay [8] is T4, RND2 (aa 26-184) (human) (UniProt P52198).
T4 sequence: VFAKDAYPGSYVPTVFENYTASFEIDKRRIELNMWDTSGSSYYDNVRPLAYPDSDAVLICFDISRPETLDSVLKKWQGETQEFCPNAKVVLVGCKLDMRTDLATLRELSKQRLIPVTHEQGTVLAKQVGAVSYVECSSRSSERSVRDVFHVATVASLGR
Described as above.

The target of assay [9] is T5, RND1 (aa 1-232) (human) (UniProt Q92730).
T5 sequence: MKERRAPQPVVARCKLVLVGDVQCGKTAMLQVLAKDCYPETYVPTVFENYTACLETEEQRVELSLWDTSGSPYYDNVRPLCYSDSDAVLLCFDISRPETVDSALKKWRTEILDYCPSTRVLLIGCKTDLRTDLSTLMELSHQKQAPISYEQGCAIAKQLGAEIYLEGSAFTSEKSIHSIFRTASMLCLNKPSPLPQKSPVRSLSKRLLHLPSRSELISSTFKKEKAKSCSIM
Described as above.

Assay [10] concerns the target RHOA (aa 1-181) (human) (UniProt P61586). Description: stopped-flow fluorescence spectrometry; kon from 0.2 µM mGppNHp-bound RHO GTPase with 2-8 µM IQGAP1^C794; koff by displacing with 10 µM unlabeled RAC1-GppNHp from 2 µM IQGAP1^C794 with 0.2 µM GTPase; Kd calculated from the rate constants; 25 °C; both purified.
The target in assay [11] is GST-CDC42•GppNHp (human) (UniProt P60953). As to the kind of experiment: pull-down; 10 µg GST-RHOG•GppNHp or GST-CDC42•GppNHp on glutathione agarose beads, HEK293 total cell lysate, 40 min at 4 °C; immunoblot with anti-IQGAP1 and anti-GST; only the target purified. In general terms: A western blot detects proteins with antibodies after separation by electrophoresis.
The target of assay [12] is GST-RHOG•GppNHp (human) (UniProt P84095). The description is as above.

No constants are given. Whether binding was seen depends on the method and setting. For part of these data: In cells and extracts the contact can be indirect. Some results given as binding are weak or reduced against the parent protein; the word gives no strength.

With “IQGAP1^C794 (C-terminal half of human IQGAP1 with the GRD, RGCT and CT domains) (from UniProt P46940 863-1657) (domain or fragment)”, the binding result in [1] is “no binding (tested: 2 µM IQGAP, 0.2 µM GTPase)”; in [2], “no binding (tested: 2 µM IQGAP, 0.2 µM GTPase)”; in assay [3] it was “no binding (tested: 2 µM IQGAP, 0.2 µM GTPase)”; in assay [4] it was “no binding (tested: 2 µM IQGAP, 0.2 µM GTPase)”; in assay [5], “no binding (tested: 2 µM IQGAP, 0.2 µM GTPase)”; in [6] it was “no binding (tested: 2 µM IQGAP, 0.2 µM GTPase)”. Besides, the binding result in assay [7], in assay [8], in [9] and in [10] was “no binding” each time.
For “IQGAP2^C795 (C-terminal fragment of IQGAP2) (from UniProt Q13576 780-1575) (domain or fragment)”, the binding result in assay [1] was “no binding (tested: 2 µM IQGAP, 0.2 µM GTPase)”; in assay [2], “no binding (tested: 2 µM IQGAP, 0.2 µM GTPase)”; in assay [3], “no binding (tested: 2 µM IQGAP, 0.2 µM GTPase)”; in assay [4], “no binding (tested: 2 µM IQGAP, 0.2 µM GTPase)”; in [5], “no binding (tested: 2 µM IQGAP, 0.2 µM GTPase)”; in assay [6], “no binding (tested: 2 µM IQGAP, 0.2 µM GTPase)”. The binding result in assay [7], in [8] and in assay [9] was “no binding” throughout.
With “endogenous IQGAP1 (HEK-293 total cell lysate) (from UniProt P46940 1-1657)”, the binding entry in [11] and in assay [12] was “binds” throughout.
